Assay results: patent publication US20230151091A1 (NEW YORK UNIVERSITY, published 2023)
Substitutions are numbered along the chain they refer to. Numbers in names are those of the source. These are yes or no findings as the source states them, for the method shown. Some binding calls cover weakened binding; strength is not graded here.

T1: human MuSK (human, UniProt O15146 24-495)
T1 construct: Recombinant protein coated on ELISA plates (R&D Systems cat. 10189-MK) or on the Biacore chip; also called human muscle-specific tyrosine protein kinase; full length human MuSK
T1 sequence: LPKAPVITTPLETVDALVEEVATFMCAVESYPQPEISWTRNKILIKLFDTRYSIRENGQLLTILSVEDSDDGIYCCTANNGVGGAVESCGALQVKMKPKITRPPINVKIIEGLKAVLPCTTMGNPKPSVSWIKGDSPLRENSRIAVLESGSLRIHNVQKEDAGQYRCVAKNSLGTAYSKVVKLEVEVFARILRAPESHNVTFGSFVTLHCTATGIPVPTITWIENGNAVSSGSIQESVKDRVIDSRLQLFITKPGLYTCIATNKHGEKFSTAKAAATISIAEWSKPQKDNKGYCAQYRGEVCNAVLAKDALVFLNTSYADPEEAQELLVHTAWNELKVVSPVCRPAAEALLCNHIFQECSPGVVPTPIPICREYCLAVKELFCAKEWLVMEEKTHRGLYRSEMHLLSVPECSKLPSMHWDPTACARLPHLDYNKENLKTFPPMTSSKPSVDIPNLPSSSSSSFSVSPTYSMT

T2: mouse MuSK (mouse, UniProt Q61006 22-494, limits assumed)
T2 construct: Coated on ELISA plates or on the Biacore chip; also called full length mouse MuSK; mouse MuSK (in house produced in HEK293 cells)
T2 sequence (looked up): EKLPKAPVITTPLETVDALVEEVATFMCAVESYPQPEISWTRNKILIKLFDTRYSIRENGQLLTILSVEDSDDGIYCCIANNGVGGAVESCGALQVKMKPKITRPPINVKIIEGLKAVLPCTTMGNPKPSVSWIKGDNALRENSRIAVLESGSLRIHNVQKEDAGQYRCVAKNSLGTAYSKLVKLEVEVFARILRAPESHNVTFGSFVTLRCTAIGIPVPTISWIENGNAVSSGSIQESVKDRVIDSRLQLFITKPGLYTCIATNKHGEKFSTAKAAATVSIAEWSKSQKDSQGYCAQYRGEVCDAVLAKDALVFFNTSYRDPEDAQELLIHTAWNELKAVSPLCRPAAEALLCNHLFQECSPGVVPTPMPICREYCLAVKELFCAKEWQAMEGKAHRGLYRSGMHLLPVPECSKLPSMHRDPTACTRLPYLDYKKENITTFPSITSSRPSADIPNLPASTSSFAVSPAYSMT

B1: 3B2g2m1 (antibody, human IgG1, V domains shown)
VH: EVQLLESGGGLVQPGGSLRLSCAASGFTFSDYGMSWVRQAPGKGLEWVSAIPWSGGSTYYKESVKGRFTISRDNSKNTLYLQMNSLRAEDTAVYYCAKRSGRIAFGALDAWGQGTLVTVSS
VL: QTVVTQEPSFSVSPGGTVTLTCGLSSGSVTSSNYPDWYQQTPGQAPRTLIYSTDSRHSGVPDRFSGSILGNKAALTITGAQADDESDYYCGLYSYSGSKNYVFGGGTKLTVL
notes: human IgG1-LALA backbone; produced in HEK293 cells; also called MuSK agonist antibody 3B2g2m1; MuSK-mAb 3B2g2m1
B2: 3B2g1m1 (antibody, human IgG1, V domains shown)
VH: B1 VH
VL: B1 VL with S94M
notes: human IgG1-LALA backbone; produced in HEK293 cells
B3: 3B2g1m4 (antibody, human IgG1, V domains shown)
VH: B1 VH with S54Q
VL: B1 VL with S94M
notes: as for B2
B4: 3B2g2m2 (antibody, human IgG1, V domains shown)
VH: B1 VH with W53G
VL: B1 VL
notes: as for B2
B5: 3B2g1m2 (antibody, human IgG1, V domains shown)
VH: B1 VH with W53G
VL: B1 VL with S94M
notes: as for B2
B6: 3B2g2m4 (antibody, human IgG1, V domains shown)
VH: B1 VH with S54Q
VL: B1 VL
notes: as for B2
B7: 17H10 (antibody, V domains shown)
VH: QVQVQESGPGLVKPSQTLSLTCTVSGGSITARYYSWSWIRQPPGKGLEWMGVIAYDGSTYYSPSLKSRTSISRDTSKNQFSLHLSSVTPDDTAVYYCARGSSRVAAAFDSWGQGTQVTVSS
VL: SYELTQSPSVSVALRQTAKITCGGNRIGGKSVQWYQQKPGQAPMLVIYADSRRPSGIPERFTGSNSGNTATLTITGAQAEDEADYYCHVWGSTASADFGGGTHLTVL
notes: human IgG1 with the LALA mutations (L234A, L235A); produced in HEK293 cells
B8: 14D10 (antibody, V domains shown)
VH: B1 VH with V2L, L5V, S30D, S54N, S75A, N77K, R87K, A88S
VL: QAVVTQEPSLSVSPGGTVTLTCGLSSGSVTSSNYPDWYQQTPGQAPRTLIYTTNSRHSGVPSRFSGSISGNKAALTITGAQPEDEADYYCALYMGGGSNVYVFG
notes: as for B7
B9: 23B6 (antibody, V domains shown)
VH: B7 VH
VL: SYELTQSPSVSVALRQTAKITCGGDNIGSKNAQWYQQKPGQAPVMVLYADSRRPSGIPERFSGSNSGNTATLTISGAQAEDEADYYCHVWDSSTNAWFGGGTHLTVL
B10: 7G4 (antibody, V domains shown)
VH: B1 VH with V2L, L5V, S30D, S54N, S75A, N77K, R87K, A88S
VL: QAVVTQEPSLSVSPGGTVTLTCGLSSGSVTSSNYPDWYQQTPGQAPRALIYSTNSRHSGVPSRFSGSISGNKAALTITGAQPEDEADYYCALYMGRGSNKDYVFGGGTKLTVL
B11: 31G2 (antibody, V domains shown)
VH: B1 VH with V2L, L5V, S30D, S54N, S75A, N77K, R87K, A88S
VL: QAVVTQEPSLSVSPGGTVTLTCGLSSGSVTSSNYPDWYQQTPGQAPRALIYSTNSRLSGVPSRFSGSFSGNKAALTITGAQPEDEADYYCALYMGSGSRNYVFGGGTKLTVL
B12: 31B7 (antibody, V domains shown)
VH: B1 VH with V2L, L5V, S30D, S54N, S75A, N77K, R87K, A88S
VL: B11 VL with G97E
B13: 3C4 (antibody, V domains shown)
VH: B1 VH with V2L, L5V, S30D, S54N, S75A, N77K, R87K, A88S
VL: B11 VL with S31A, A48G, N54D, L57H, F68I, G95Y, G97D, R99K, N100L
B14: 3G3 (antibody, V domains shown)
VH: B1 VH with V2L, L5V, S30D, S54N, S75A, N77K, R87K, A88S
VL: B11 VL with A2T, L57H, F68T, G97D, S98I
B15: 4C11 (antibody, V domains shown)
VH: EVQLVESGGGLVQPGGSLSLSCVASGFTFSLYYMNWVRQAPGKGLEWLSVIDTHSIAYYADSVKGRFTISRDNVKNTLYLQLNNLKPEDTALYYCVLGRTALVRWGQGTQVTVSS
VL: DIVMTQSPSSVTASAGERVTINCRSSQSVLYSSNQKNYLNWYQQRLGQSPRLLIYWASARESGVPDRFSGSGSTTNFTLTISSFQPEDAAVYYCQQSYKPPYGFGSGTRLEIK
B16: 7G12 (antibody, V domains shown)
VH: B15 VH
VL: EIVLTQSPNSVTASVGEKVTINCKSSQRVQLGSNQKSYLNWYQQRPGQSPRLLIYYASTQQSGIPDRFSGSGSATDFTLTINSVQPEDAAVYYCQQGYSAPFTFGQGTKVELK
B17: 7B8 (antibody, V domains shown)
VH: B15 VH
VL: EIVLTQSPSSVTASAGEKVTINCKSSQSVLYNQKNYLAWYQQRPGQSPRLLIYWASTRESGVPDRFSGSGSTTDFTLTISSFQPEDVAVYYCQQGYSVPYTFGSGTRLEIK
B18: 7A12 (antibody, V domains shown)
VH: B15 VH
VL: EIVLTQSPSSVTASIGEKVTINCESSQSVLYNQKNYLNWYQQRPGQSPRLLIYWASTRQSGVPDRFSGSGSGSTTDFTLTISSFQPEDVAVYYCQQAYNAPLTFGPGTKVELK
B19: 30A11 Fab (Fab, V domains shown)
VH: B7 VH
VL: SYELTQSPSVTVALRQTAKITCGGDNIASKNVQWYQQKPGQAPSLVIWADSRRPSGIPVRFSGSNFGNTATLTISGAQAEDEADYYCQVWDSSTNVAVFGGGTHLTVL
notes: Fab format
B20: 30E1 Fab (Fab, V domains shown)
VH: B7 VH
VL: B9 VL with Q16R, A32T, M45L, L47I
notes: Fab format

These binders were tested against T1, human MuSK (assay: ELISA on coated MuSK).

| binding | Binder |
| --- | --- |
| binds | B1 |
| binds | B2 |
| binds | B3 |
| binds | B4 |
| binds | B5 |
| binds | B6 |

What follows are binders tested against T1, human MuSK (assay: ELISA, coated MuSK 0.2 ug/ml).

| binding | Binder |
| --- | --- |
| binds | B7 |
| binds | B8 |

These binders were tested against T2, mouse MuSK (assay: ELISA, coated MuSK 0.2 ug/ml).

| binding | Binder |
| --- | --- |
| binds | B9 |
| binds | B10 |
| binds | B11 |
| binds | B12 |
| binds | B13 |
| binds | B14 |
| binds | B15 |
| binds | B16 |
| binds | B17 |
| binds | B18 |

What follows are binders tested against T1, human MuSK (assay: ELISA, plate coated with human MuSK, dilution series of mAb, OD450).

| binding | Binder |
| --- | --- |
| binds | B1 |
| binds | B2 |
| binds | B3 |
| binds | B4 |
| binds | B5 |
| binds | B6 |

Each binder was assayed against T1, human MuSK (assay: Biacore, Fab in periplasmic extract on CM5 chip coated with full length human MuSK).

| binding | Binder |
| --- | --- |
| binds | B19 |
| binds | B20 |
| binds | B9 |
| binds | B10 |
| binds | B11 |
| binds | B12 |
| binds | B13 |
| binds | B14 |
| binds | B15 |
| binds | B16 |
| binds | B17 |
| binds | B18 |

Each binder was assayed against T2, mouse MuSK (assay: Biacore, Fab in periplasmic extract on CM5 chip coated with full length mouse MuSK).

| binding | Binder |
| --- | --- |
| binds | B9 |
| binds | B10 |
| binds | B11 |
| binds | B12 |
| binds | B13 |
| binds | B14 |
| binds | B15 |
| binds | B16 |
| binds | B17 |
| binds | B18 |

Each binder was assayed against T1, human MuSK (assay: ELISA, plate coated with human MuSK at 0.2 µg/ml, dilution series of mAb, goat anti human Fc-HRP and TMB, OD 620 nm (8 min)).
Method: An ELISA plate was coated with human MuSK (R&D Systems, cat. 10189-MK) or mouse MuSK (in house produced in HEK293 cells) at 0.2 μg/ml. After washing and blocking the plate, a dilution series of the anti-MuSK antibodies was applied and allowed to bind for 2 hours at room temperature. […] OD at 620 nm was measured with a 96 well ELISA plate reader.

| binding | Binder |
| --- | --- |
| binds | B7 |
| binds | B8 |
